{"source": "patent US9018168B2", "about": "“Therapeutic method for treating congestive heart failure” (Madeleine Pharmaceuticals Pty Ltd, priority 2010, dated 2015)", "key": {"[1]": {"tested_on": "normal and compensated aorto-caval (AV) fistula dogs", "details": "cited from earlier work"}, "[2]": {"tested_on": "patients with chronic, but stable, New York Heart Association (NYHA) Class III CHF", "details": "cited from earlier work"}, "prostaglandin E2 (PGE2)": {"tested_on": "prostaglandin E2 (PGE2)", "details": "in vivo; cited from earlier work"}, "healthy humans": {"tested_on": "healthy humans", "details": "dosages similar to 100 ng/kg/min; cited from earlier work"}, "[3]": {"tested_on": "subjects with chronic CHF or ADCHF (NYHA class III - NYHA class IV)", "test": "Example 1: treatment of ADCHF with iv administration of vessel dilator", "format": "in vivo, human", "description": "This example describes a study to examine whether VSDL administration to ADCHF patients will be safe and induce improvements in haemodynamic parameters, as well as renal, natriuretic and diuretic parameters, whilst regulating plasma volume and BP within clinically acceptable ranges and without seriously adverse side effects.\nVSDL in the form of a white lyophilised powder (synthesised using standard protein synthesis method by Auspep Pty Ltd, Parkville, VIC, Australia), stored in an ultra low freezer (−80° C.), was reconstituted in a vial with 10 ml of 0.9% saline (preservative free) and aseptically transferred into a 20 ml syringe (that connects to a patient cannula) before use.\nInitially, an iv dose of 12.5 ng/kg/min was infused into test subjects for 60 minutes with a syringe driver (Alaris Asena GS syringe driver; C are Fusion Corporation, San Diego, Calif., United States of America). This “safety dose” was chosen merely to trial the subjects for any adverse effects. Subsequently, a dose of 25 ng/kg/min (as infused for 60 minutes) was trialled. Additionally, a trial will be conducted with a dose of 50 ng/kg/min (for 60 minutes).\nTest adult subjects, both male and female, showing either acute exacerbations of chronic CHF or ADCHF (ie in individuals who had not previously shown heart failure), were recruited for the study. The following inclusion and exclusion criteria were applied:\nIn order to be eligible, a subject must have chronic CHF or ADCHF (NYHA class III—NYHA class IV) defined as: • 1. Showing dyspnoea at rest or dyspnoea with minimal activity (ie difficulty breathing at rest while sitting, or difficulty breathing while lying flat or with one pillow, or difficulty breathing with minimal activity such as talking, eating); AND • 2. Showing at least one of the following signs: • Tachypnoea with respiratory rate >20 breaths per minute, OR • Pulmonary congestion/oedema with rales or crackles/crepitations at least a third above lung bases; AND • 3. At least one of the following objective measures: • Showing, by chest X-ray, pulmonary oedema/congestions OR • Circulating B-type natriuretic peptide (BNP) concentration of ≧400 pg/ml or circulating NT-proBNP concentration of ≧1000 pg/ml at presentation, OR • PCWP >20 mmHg OR • Showing systolic dysfunction within the last 12 months (EF<50%) as determined by TTE, nuclear testing, cardiac MRI or ventricular angiography); and be: • 4. Male and/or female, 18 years or older; and • 5. If a woman of child bearing potential, testing negative to 13-hCG. Exclusion Criteria: • 1. Evidence in the ED for Myocardial Infarction (MI) or high risk acute coronary syndrome within past 6 weeks, as determined by creatinine kinase (CK)/creatinine kinase muscle-brain isoenzyme (CK-MB) ≧2 times upper limit of normal or elevation of Troponin T at baseline >0.1 or as determined by Trans-Thoracic […] (TTE); • 2. Hypotension (SBP <90 mmHg), cardiogenic shock, volume depletion; • 3. Persistent, uncontrolled hypertension (SBP >180 mm Hg); • 4. Subjects with the presence of any CMR contra-indication (including PPM, cerebral aneurysm clips or non-MM approved metallic implant) are excluded from any MRI study component only; • 5. Congenital heart defects (including Ventricular Septal Defect, Atrial Septal Defect, Patent Ductus Arteriosus, Tetralogy of Fallot, and Tricuspid Atresia); • 6. Cardiac surgery within past 4 weeks; • 7. Diastolic heart failure (preserved left ventricular function—determined by known history, ie E:E prime ratio>15); • 8. Severe valvular heart disease: Aortic Stenosis <1.0 cm^2, any Idiopathic hypertrophic subaortic stenosis or Hypertrophic Obstructive Cardiomyopathy, acute Aortic Regurgitation grade 3 or 4 and Mitral Regurgitation grade 3 or 4; • 9. History of cerebrovascular accident (within past 4 weeks) as determined by MM or Computerised Tomography (CT) Scan; • 10. […]"}, "[4]": {"details": "25 ng/kg/min iv for 60 mins, 24 hrs post-infusion"}, "[5]": {"details": "25 ng/kg/min iv for 60 mins, Baseline"}, "[6]": {"details": "Subject #1, 12.5 ng/kg/min iv for 60 mins"}, "[7]": {"details": "Subject #2, 12.5 ng/kg/min iv for 60 mins"}, "[8]": {"details": "Subject #3, 12.5 ng/kg/min iv for 60 mins"}, "[9]": {"details": "one subject, 25 ng/kg/min iv for 60 mins"}}, "note": "Not every detail of the peptide structures is certain; ends, links or a residue may be inferred. No end group written: not given here.", "data": [{"sequence": "EVVPPQVLSEPNEEAGAALSPLPEVPPWTGEVSPAQR [VSDL]", "values": [{"measurement": "arterial blood pressure", "setting": "[1]", "value": "significant reductions"}, {"measurement": "right atrial pressure", "setting": "[1]", "value": "significant reductions"}, {"measurement": "urinary sodium excretion", "setting": "[1]", "value": "elevations"}, {"measurement": "decrease central venous pressure (CVP)", "setting": "[2]; CHF patients", "value": 27, "unit": "%"}, {"measurement": "decrease pulmonary capillary wedge pressure (PCWP)", "setting": "[2]; CHF patients", "value": 33, "unit": "%"}, {"measurement": "decrease pulmonary vascular resistance (PVR)", "setting": "[2]; CHF patients", "value": 25, "unit": "%"}, {"measurement": "decrease systemic vascular resistance (SVR)", "setting": "[2]; CHF patients", "value": 24, "unit": "%"}, {"measurement": "effect on heart rate", "setting": "[2]; CHF patients", "value": "without significantly affecting"}, {"measurement": "effect on pulmonary artery pressure", "setting": "[2]; CHF patients", "value": "without significantly affecting"}, {"measurement": "increase cardiac index (CI)", "setting": "[2]; CHF patients", "value": 35, "unit": "%"}, {"measurement": "increase cardiac output (CO)", "setting": "[2]; CHF patients", "value": 34, "unit": "%"}, {"measurement": "increase stroke volume index (SVI)", "setting": "[2]; CHF patients", "value": 24, "unit": "%"}, {"measurement": "sodium excretion 3 hours after infusion", "setting": "[2]; CHF patients", "value": "still significantly (P<0.01) elevated"}, {"measurement": "urine flow 3 hours after the VSDL infusion was halted", "setting": "[2]; NYHA Class III CHF patients, P<0.001", "value": "still increased"}, {"measurement": "natriuretic, diuretic and haemodynamic parameters", "setting": "[2]; NYHA Class III CHF patients", "value": "significantly improve"}, {"measurement": "haemodynamic and renal parameters", "setting": "[2]; stable NYHA class III chronic CHF, dosages similar to 100 ng/kg/min", "value": "improved"}, {"measurement": "increase in circulating PGE2 compared to basal levels", "setting": "prostaglandin E2 (PGE2)", "value": 8, "unit": "fold"}, {"measurement": "diuresis", "setting": "healthy humans", "value": "marked"}, {"measurement": "natriuresis", "setting": "healthy humans", "value": "marked"}, {"measurement": "Arterial BP (mean)", "setting": "[3]; [4]", "value": 96, "unit": "mmHg"}, {"measurement": "CI", "setting": "[3]; [4]", "value": 2.34, "unit": "L/min/m^2"}, {"measurement": "PAWP", "setting": "[3]; [4]", "value": 6, "unit": "mmHg"}, {"measurement": "Urinary Output", "setting": "[3]; [4]", "value": 2170, "unit": "mL"}, {"measurement": "Arterial BP (mean)", "setting": "[3]; [5]", "value": 124, "unit": "mmHg"}, {"measurement": "CI", "setting": "[3]; [5]", "value": 2.26, "unit": "L/min/m^2"}, {"measurement": "PAWP", "setting": "[3]; [5]", "value": 22, "unit": "mmHg"}, {"measurement": "blood pressure (BP) response", "setting": "[3]; [6]", "value": "asymptomatic drop in blood"}, {"measurement": "cardiac index (CI) response during infusion", "setting": "[3]; [6]", "value": "increase in cardiac index (CI), a"}, {"measurement": "pulmonary capillary wedge pressure (PCWP) response", "setting": "[3]; [6]", "value": "drop in pulmonary capillary"}, {"measurement": "significant change in CI", "setting": "[3]; [7]", "value": "starting infusion. There was no"}, {"measurement": "significant change in PCWP", "setting": "[3]; [7]", "value": "starting infusion. There was no"}, {"measurement": "significant change in mean BP", "setting": "[3]; [7]", "value": "starting infusion. There was no"}, {"measurement": "time until dyspnea disappeared, from starting infusion", "setting": "[3]; [7]", "value": "disappeared within 1 hour of"}, {"measurement": "diuresis", "setting": "[3]; Subject #2, 12.5 ng/kg/min iv for 60 mins, first 30 mins following infusion", "value": "the subject. There was marked"}, {"measurement": "SVR decrease", "setting": "[3]; Subject #2, 12.5 ng/kg/min iv, first 30 mins of the infusion", "value": "decreased 25% in the first 30 mins"}, {"measurement": "BP response", "setting": "[3]; [8]", "value": "asymptomatic drop in BP. It"}, {"measurement": "CI response", "setting": "[3]; [8]", "value": "well. There was an increase in"}, {"measurement": "PCWP response", "setting": "[3]; [8]", "value": "CI, a fall in PCWP, and an"}, {"measurement": "SVR response", "setting": "[3]; [8]", "value": "improved. Further, the blood"}, {"measurement": "CI", "setting": "[3]; [9]", "value": "increased"}, {"measurement": "PAWP", "setting": "[3]; [9]", "value": "decreased"}, {"measurement": "peripheral vascular resistance (PVR)", "setting": "[3]; [9]", "value": "decreased"}, {"measurement": "systemic vascular resistance (SVR)", "setting": "[3]; [9]", "value": "decreased"}]}]}
